Measurements from PubChem BioAssay AID540275 (National Center for Advancing Translational Sciences (NCATS), 2011).
In all, about 320,000 compounds went through this assay and about 620 (0.19%) were called active. This list was built around the results that the source calls inconclusive (neither active nor inactive); the mix of calls is not that of the screen. No stated cut-off is given here; in the data, active means activation above about 80%; inconclusive means between about 30% and that limit; inactive means weaker than that.

The chains behind the UniProt entries cited, without tags or fusion partners.
UniProt Q8NER1, whole entry, looked up: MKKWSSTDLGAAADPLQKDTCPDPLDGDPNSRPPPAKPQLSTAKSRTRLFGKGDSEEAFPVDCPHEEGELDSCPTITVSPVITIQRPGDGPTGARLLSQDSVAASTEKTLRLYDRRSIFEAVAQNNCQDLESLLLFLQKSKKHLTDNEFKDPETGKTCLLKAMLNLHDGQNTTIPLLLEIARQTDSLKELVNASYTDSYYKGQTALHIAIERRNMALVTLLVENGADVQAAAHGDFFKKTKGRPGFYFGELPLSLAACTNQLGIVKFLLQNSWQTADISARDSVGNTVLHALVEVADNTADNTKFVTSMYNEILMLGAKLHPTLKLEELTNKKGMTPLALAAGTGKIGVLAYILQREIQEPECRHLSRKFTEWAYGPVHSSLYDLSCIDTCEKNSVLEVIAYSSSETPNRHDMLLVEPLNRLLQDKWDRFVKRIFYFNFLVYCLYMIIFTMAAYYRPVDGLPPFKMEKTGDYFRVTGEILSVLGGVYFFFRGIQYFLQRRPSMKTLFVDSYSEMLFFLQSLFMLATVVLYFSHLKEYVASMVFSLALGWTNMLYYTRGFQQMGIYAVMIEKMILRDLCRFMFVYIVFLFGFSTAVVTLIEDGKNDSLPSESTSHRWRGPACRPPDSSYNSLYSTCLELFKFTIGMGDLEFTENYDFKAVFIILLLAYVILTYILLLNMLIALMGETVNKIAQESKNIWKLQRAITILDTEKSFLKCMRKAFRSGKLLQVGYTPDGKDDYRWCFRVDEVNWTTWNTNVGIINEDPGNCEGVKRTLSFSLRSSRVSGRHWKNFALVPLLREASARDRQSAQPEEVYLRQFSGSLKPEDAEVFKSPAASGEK

Each molecule was assayed against Transient receptor potential cation channel subfamily V member 1 (Homo sapiens) (UniProt Q8NER1) (assay: HTS Assay for Compounds that Act as Agonists of the Vanilloid Receptor 1). Conditions: TRPV1-expressing cells, Fluo-8 calcium influx, agonist mode; at 8.33 µM, hits give high values.
Outline: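 Fluo-8 calcium influx in TRPV1-expressing cells, kinetic read (ex 480/em 520 nm). Compound added and read 3 min for agonist activity, followed by capsaicin at EC20 final and 2 min further read for enhancement.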
Further: 0% is about no effect.

SMILES | activation
Cc1ccc(/C=N/NC(=O)C(C)Oc2ccccc2[N+](=O)[O-])s1 (configuration not stated) | inactive: 3.55%
O=C1C=C(c2ccc(OC(F)(F)F)cc2)C[C@@H](c2ccc(Cl)cc2)C1 | inconclusive: 36.3%
Cc1ccc(C(=O)N/N=C\c2ccc[nH]2)cc1[N+](=O)[O-] | inconclusive: 30.6%
O=C(c1ccc(Cl)cc1)C1CCN(C(=O)C2CC2)CC1 | inconclusive: 32.5%
CC(C)C(c1nnnn1C1CCCC1)N1c2ccccc2CC1C (configuration not stated) | inconclusive: 32.1%
CCOc1ccc(CN2CCN(Cc3cc4c(cc3Cl)OCO4)CC2CCO)cc1 (configuration not stated) | inconclusive: 32.1%
CCn1c(Cc2ccccc2)n[nH]c1=S | inactive: -5.57%
COC(=O)c1sc2cc(C(F)(F)F)cnc2c1-c1ccccn1 | inactive: -0.772%
Nc1nnc(CC(c2ccccc2)c2ccccc2)s1 | inconclusive: 30.6%
C=CCN1CCN(C(=O)c2cc3c(s2)CCC(CC)C3)CC1 (configuration not stated) | inconclusive: 39.1%
CCCCCCCCCSc1n[nH]c(N)n1 | inconclusive: 36.5%
CC(C)c1ccc(NC2CCCN(C(=O)CCN3CCCCO3)C2)cc1 (configuration not stated) | inconclusive: 61.6%
O=C(Nc1ccc(F)c(F)c1)c1cnc(-c2ccccc2)nc1-c1ccccc1 | inconclusive: 34.9%
CC/C(=N\NC(=O)c1ccc2c(c1)OCO2)C12CC3CC(CC(C3)C1)C2 | inconclusive: 52.5%
Cc1ccc(C)c(NC(=S)NCCc2c[nH]c3ccccc23)c1 | inconclusive: 34.4%
CNNC(=S)NC1CC2CC1C1C=CCC21 (configuration not stated) | inconclusive: 70.5%
COc1cc(C)ccc1OCC(=O)Nc1ccc2c(c1)OCO2 | inconclusive: 43.9%
COCC1CCN(C(=O)c2cc(COc3cccc4cnccc34)on2)CC1 | inactive: 6.78%
O=C(NCc1cccnc1)C(=O)Nc1nc(C23CC4CC(CC(C4)C2)C3)cs1 | inconclusive: 65.8%
COc1cc(/C=C2\NC(=S)N(C)C2=O)ccc1O | inconclusive: 38.7%
O=C(CCS(=O)(=O)c1ccccc1)N(CCCN1CCOCC1)c1nc2c(F)cccc2s1 | inactive: -3.41%
O=C(c1ccc(N2CCN(C(=O)c3cccc(F)c3)CC2)cc1)c1cccc(F)c1 | inconclusive: 39.4%
COc1ccc(NC(=O)c2ccc3ncsc3c2)cc1 | active: 91.8%

SMILES | activation
COc1ccc(CNC(=O)c2ccccc2C(=O)O)cc1 | inactive: -1.3%
CCC(c1nnnn1Cc1ccc(OC)cc1)N(CCCO)Cc1cc2cc3c(cc2[nH]c1=O)OCO3 (configuration not stated) | inactive: -3.35%
COC(=O)c1sccc1NC(=O)Nc1ccc(F)cc1F | inconclusive: 64.5%
O=C1C2C3c4ccccc4C(c4ccccc43)[C@@H]2c2nc3ccccc3n21 (some centres not stated) | inconclusive: 37.1%
COc1ccc(N2CC(C(=O)Nc3nc4ccccc4s3)CC2=O)cc1 (configuration not stated) | inconclusive: 31.1%
C=CCN(CC=C)c1nc2ccccc2nc1C(C#N)C(=O)OC(C)C (configuration not stated) | inconclusive: 59.8%
Cc1ccccc1C(=O)Nc1cccc(NC(=O)c2cccnc2)c1 | inactive: -0.121%
Cc1ccc2c(Cl)cc(Cl)c(OCC(=O)Nc3cccc(S(=O)(=O)N(C)C)c3)c2n1 | inactive: -0.281%
COc1ccc(CCNC(=S)NC(=O)c2ccccc2)cc1C | inactive: 29.5%
Cc1ccc(-c2csc(NC(=O)c3ccco3)n2)cc1C | inconclusive: 63.8%
CCc1ccc(C(c2ccc(CC)cc2)C(Cl)Cl)cc1 | inactive: 4.19%
Cc1c(F)cccc1NC(=O)c1ccc2c(c1)CCN2S(C)(=O)=O | inconclusive: 45.1%
Cc1cc(C)n(-c2nc3ccccc3nc2N2CCN(C(=O)c3ccc(Cl)cc3)CC2)n1 | inactive: 5.78%
CCCCc1ccc(NC(=S)NCc2cccc(OC)c2)cc1 | inconclusive: 72.2%
CC(=O)NC1=C(C#N)C(c2ccccc2)c2c(ccc3ccccc23)O1 (configuration not stated) | inconclusive: 40%
CC(CCc1ccccc1)NC(=O)c1ccco1 (configuration not stated) | inconclusive: 58.7%
COc1ccc(CN2C(=O)C(CC(C)C)Nc3ncnc(N4CCCCC4)c32)cc1 (configuration not stated) | inconclusive: 56.5%
O=C(CNC(=O)c1ccccc1F)c1ccccc1 | inactive: 5.53%
CCOc1cc(/C=C(/C#N)C(=O)Nc2ccc(O)cc2)cc(Br)c1O | inactive: 24.1%
COc1cccc(NC(=O)c2c(F)cccc2F)c1 | inconclusive: 33.3%
COC(=O)c1ccc(NC(=O)C2CCN(S(C)(=O)=O)CC2)cc1 | inactive: -1.04%
Cn1c(/N=C/c2c[nH]c3ccccc23)nc2ccccc21 | inactive: -0.481%
Cc1cc2oc(=O)cc(Cn3nnc(-c4ccc(Cl)cc4)n3)c2cc1C(C)C | inconclusive: 30.7%

6 entries from above, in CSV form.
SMILES,activation
COC(=O)c1sccc1NC(=O)Nc1ccc(F)cc1F,inconclusive: 64.5%
O=C1C2C3c4ccccc4C(c4ccccc43)[C@@H]2c2nc3ccccc3n21 (some centres not stated),inconclusive: 37.1%
COc1ccc(N2CC(C(=O)Nc3nc4ccccc4s3)CC2=O)cc1 (configuration not stated),inconclusive: 31.1%
C=CCN(CC=C)c1nc2ccccc2nc1C(C#N)C(=O)OC(C)C (configuration not stated),inconclusive: 59.8%
Cc1ccccc1C(=O)Nc1cccc(NC(=O)c2cccnc2)c1,inactive: -0.121%
Cc1ccc2c(Cl)cc(Cl)c(OCC(=O)Nc3cccc(S(=O)(=O)N(C)C)c3)c2n1,inactive: -0.281%

The results go on.

SMILES | activation
O=C(C(F)C(F)(F)F)N1CCN(c2ccccc2)CC1 (configuration not stated) | inconclusive: 57.7%
COc1ccc(CC(=O)Nc2cc(C)c3c(=O)oc4ccccc4c3n2)cc1 | inconclusive: 41.2%
O=C(NC1C2CC3CC(C2)CC1C3)C1CCCCC1 (configuration not stated) | inconclusive: 30.3%
CCC(=O)Oc1ccc(C(=O)Nc2ccc3c(c2)C(=O)N(C2CCCCC2)C3=O)cc1 | inconclusive: 64.7%
COc1cc(C(=O)NCC(c2ccc(F)cc2)N2CCOCC2)ccc1OCc1ccccc1Cl (configuration not stated) | inactive: 5.94%
CCOc1ccc(C(C)NC(=S)NC2CCCCC2)cc1 (configuration not stated) | inconclusive: 49.5%
O=C(NC1CCCC1)C(c1ccsc1)N(C(=O)Cc1cccs1)c1ccc(F)cc1 (configuration not stated) | inactive: -2.96%
O=C(Nc1ccc2c(c1)OCO2)C1CC(c2ccc(F)cc2)=NO1 (configuration not stated) | inconclusive: 37%
CC(C)Cn1c(-c2ccc(Cl)cc2)cnc1SCC(=O)N1CCOCC1 | inconclusive: 58%
O=C1N=C(N2CCOCC2)S/C1=C/c1ccc(-c2ccc(F)cc2)o1 | inconclusive: 69%
CC1CC1C(=O)OCc1cc(=O)n2cc(Br)ccc2n1 (configuration not stated) | inactive: 4.54%
O=C(NCCOc1ccccc1)c1ccc2n[nH]nc2c1 | inconclusive: 67.4%
CCOc1ccc2nc(NC(=O)c3cccc(-c4cc5ccccc5oc4=O)c3)sc2c1 | inactive: 0.373%
CC(C)(C)c1ccc(OCCC(=O)OCC(=O)NC2CC2)cc1 | inconclusive: 40.9%
O=C(NCCCCc1ccccc1)C1CC(c2ccc([N+](=O)[O-])cc2)=NO1 (configuration not stated) | inconclusive: 31%
COc1cccc(CNC(=S)Nc2ccc(Cl)cc2C)c1 | active: 80.6%
CCOc1ccc(C(=O)NCC(=O)OCCN2C(=O)c3ccccc3C2=O)cc1OCC | inactive: -1.75%
CC1(C)C(=O)C2(CCCCC2)C(=O)OC1c1ccc(O)cc1 (configuration not stated) | inconclusive: 55.3%
CC[n+]1c(/C=C/Nc2ccccc2)oc2ccc(OC)cc21 | inactive: 0.566%
Cc1ccc(CN2C(=O)C(CC(C)C)Nc3ncnc(N4CCN(c5ccccn5)CC4)c32)cc1 (configuration not stated) | active: 81.2%
O=C(C1CCCN(Cc2cc(Br)ccc2O)C1)N1CCCCC1 (configuration not stated) | inconclusive: 46%
Cn1c(SCC2CCCCC2)nnc1-c1ccncc1 | inconclusive: 33.3%
Cc1ccc(-n2ncc3c2CC(C)(C)CC3NC(=O)c2cc[n+]([O-])cc2)cc1 (configuration not stated) | inconclusive: 56.3%

SMILES | activation
Cc1ccc(C(c2nnnn2C2CCCCC2)N(C)C2CCCCC2)cc1 (configuration not stated) | inconclusive: 31.3%
Clc1ccccc1OCc1nnc(-c2ccccc2Br)o1 | inactive: 17.8%
COc1cccc(CNC(=O)CNC(=S)N(Cc2ccccc2)Cc2ccccc2F)c1 | inconclusive: 43.8%
CNC(=O)CC1C(=O)N(c2ccc(F)cc2)C(=S)N1NC(=O)c1ccc(Br)cc1 (configuration not stated) | inactive: 1.93%
Cc1ccc(-c2cc(-c3ccccc3Cl)c(C#N)c(N)n2)o1 | inconclusive: 33.5%
COCCN(Cc1ccco1)C(=O)C1CCCN(c2ncnc3c2nc2n3CCCCC2)C1 (configuration not stated) | inconclusive: 36.2%
COc1ccccc1-c1nnc(NC(C)=O)s1 | inactive: 1.6%
CCOC(=O)C1CCCN(C(=O)c2ccccc2Oc2ccccc2)C1 (configuration not stated) | inconclusive: 31.2%
CC(C)(C)c1ccc(NC(=O)c2c(F)cccc2Cl)cc1 | inconclusive: 57.3%
NS(=O)(=O)c1ccc(-n2nncc2-c2ccco2)cc1 | inactive: -2.89%
O=c1cc(NS(=O)(=O)c2ccccc2)nc(SCc2ccc(Cl)cc2)[nH]1 | inactive: -1.36%
Cc1ccc(OC(=O)CCC(=O)OCCCC(F)(F)C(F)(F)F)cc1 | inconclusive: 30.2%
O=C(COc1ccccc1)NC(NC(=S)Nc1ccccc1C(=O)O)C(Cl)(Cl)Cl (configuration not stated) | inactive: -2.47%
Cn1nccc1NC(=O)Nc1cccc(Cl)c1 | inconclusive: 34.7%
COCCNC(=O)CCc1c(C)nc2c(c(C)nn2-c2ccc(C)c(C)c2)c1C | inconclusive: 67.3%
Cc1cc(C(=O)NCCCn2ccnc2)sc1-c1ccccc1 | inconclusive: 30.1%
COCCn1c(/C=C/c2ccccc2)nc2ccccc21 | inconclusive: 35.5%
COc1ccc(N2CC(C(=O)Nc3ccc4c(c3)OCO4)CC2=O)cc1 (configuration not stated) | inconclusive: 45.5%
Cc1ccc(NC(=O)c2ccc([N+](=O)[O-])cc2Cl)nc1 | inconclusive: 61.3%
Cc1ccc(S(=O)(=O)N(CCO)c2cc3c(s2)CCCC3)cc1 | inconclusive: 31.8%
CCn1c(=O)n(CC)c2cc(N3CCCC3)c(NC(=O)c3ccc(OC)c(Br)c3)cc21 | inactive: 14.2%
Cc1cc(C)cc(Oc2cc(NC(=O)c3cn(C)nc3C)cc([N+](=O)[O-])c2)c1 | inconclusive: 39.4%
Cc1ccc(OCC(=O)N2CCN(c3nnc(-c4ccc(C)cc4)c4ccccc34)CC2)cc1 | inconclusive: 52.6%
